Experimental data as given in patent publication US7671023B2 (Amylin Pharmaceuticals, Inc., priority 2005, dated 2010).
At least one structure is not confirmed: it was looked up by name or label, or the drawing left a doubt.

System: mice
Test: stress-induced hyperthermia (SIH) assay
Assay type: in vivo, mouse
Text: These specific behavioral tests are known to be sensitive to anxiolytic, antidepressant, or antipsychotic drugs.
Body temperature and emotional state are closely related in humans, and stress-induced hyperthermia (SIH) in mice is considered to have predictive validity for certain human anxiety/stress disorders. The SIH assay assesses the effect of anxiolytics or test agents on stress-induced hyperthermia and measures the intrinsic effects of these drugs on core body temperature of the animal. See, for example, Zethof et al. (1994) Physiol. Behav. […] Anxiolytics blunt the increase in body temperature, or hyperthermic response, following stress exposure. […] Mice were subjected to two sequential rectal temperature measurements ten minutes apart. The stress from the first measurement induces hyperthermia which was measured by the second temperature measurement. The difference between the two temperatures (ΔT) was the stress-induced hyperthermia.

Compound: CNC1=Nc2ccc(Cl)cc2C(c2ccccc2)=[N+]([O-])C1 [chlordiazepoxide, reference compound]
- SIH response (ΔT) (acute, 60 minutes before the assay, rat amylin 0.1, 1.0 or 10 mg/kg, chlordiazepoxide 10 mg/kg, FIG. 2): blunted the SIH response
- SIH response (ΔT), chronic infusion (subcutaneously implanted pumps, amylin 300 μg/kg/d, CDP 10 mg/kg/d, at both 1 week and 4 weeks of administration): significantly blunted the SIH response
